# Results taken from the supplement of paper PMC10032668.
# Chains of the proteins cited; added tags and fusions are not shown.
# CLPX, O76031, UniProt O76031, whole entry: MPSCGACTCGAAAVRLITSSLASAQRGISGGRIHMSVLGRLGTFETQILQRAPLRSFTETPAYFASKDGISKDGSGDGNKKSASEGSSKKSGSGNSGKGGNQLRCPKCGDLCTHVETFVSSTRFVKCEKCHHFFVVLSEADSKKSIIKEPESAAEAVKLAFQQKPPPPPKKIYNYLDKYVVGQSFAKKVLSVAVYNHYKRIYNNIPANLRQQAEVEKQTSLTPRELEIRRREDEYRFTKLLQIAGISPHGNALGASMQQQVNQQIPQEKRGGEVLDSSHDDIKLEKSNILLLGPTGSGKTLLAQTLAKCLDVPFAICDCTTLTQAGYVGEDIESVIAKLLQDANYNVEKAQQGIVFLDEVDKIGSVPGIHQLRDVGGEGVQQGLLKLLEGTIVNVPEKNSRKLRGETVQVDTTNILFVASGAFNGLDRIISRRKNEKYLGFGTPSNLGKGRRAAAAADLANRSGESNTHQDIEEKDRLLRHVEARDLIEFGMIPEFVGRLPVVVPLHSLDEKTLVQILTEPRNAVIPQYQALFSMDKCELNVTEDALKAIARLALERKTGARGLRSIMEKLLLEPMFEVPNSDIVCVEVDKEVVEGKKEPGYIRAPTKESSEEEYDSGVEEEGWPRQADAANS
# DMD, P11532, UniProt P11532, whole entry: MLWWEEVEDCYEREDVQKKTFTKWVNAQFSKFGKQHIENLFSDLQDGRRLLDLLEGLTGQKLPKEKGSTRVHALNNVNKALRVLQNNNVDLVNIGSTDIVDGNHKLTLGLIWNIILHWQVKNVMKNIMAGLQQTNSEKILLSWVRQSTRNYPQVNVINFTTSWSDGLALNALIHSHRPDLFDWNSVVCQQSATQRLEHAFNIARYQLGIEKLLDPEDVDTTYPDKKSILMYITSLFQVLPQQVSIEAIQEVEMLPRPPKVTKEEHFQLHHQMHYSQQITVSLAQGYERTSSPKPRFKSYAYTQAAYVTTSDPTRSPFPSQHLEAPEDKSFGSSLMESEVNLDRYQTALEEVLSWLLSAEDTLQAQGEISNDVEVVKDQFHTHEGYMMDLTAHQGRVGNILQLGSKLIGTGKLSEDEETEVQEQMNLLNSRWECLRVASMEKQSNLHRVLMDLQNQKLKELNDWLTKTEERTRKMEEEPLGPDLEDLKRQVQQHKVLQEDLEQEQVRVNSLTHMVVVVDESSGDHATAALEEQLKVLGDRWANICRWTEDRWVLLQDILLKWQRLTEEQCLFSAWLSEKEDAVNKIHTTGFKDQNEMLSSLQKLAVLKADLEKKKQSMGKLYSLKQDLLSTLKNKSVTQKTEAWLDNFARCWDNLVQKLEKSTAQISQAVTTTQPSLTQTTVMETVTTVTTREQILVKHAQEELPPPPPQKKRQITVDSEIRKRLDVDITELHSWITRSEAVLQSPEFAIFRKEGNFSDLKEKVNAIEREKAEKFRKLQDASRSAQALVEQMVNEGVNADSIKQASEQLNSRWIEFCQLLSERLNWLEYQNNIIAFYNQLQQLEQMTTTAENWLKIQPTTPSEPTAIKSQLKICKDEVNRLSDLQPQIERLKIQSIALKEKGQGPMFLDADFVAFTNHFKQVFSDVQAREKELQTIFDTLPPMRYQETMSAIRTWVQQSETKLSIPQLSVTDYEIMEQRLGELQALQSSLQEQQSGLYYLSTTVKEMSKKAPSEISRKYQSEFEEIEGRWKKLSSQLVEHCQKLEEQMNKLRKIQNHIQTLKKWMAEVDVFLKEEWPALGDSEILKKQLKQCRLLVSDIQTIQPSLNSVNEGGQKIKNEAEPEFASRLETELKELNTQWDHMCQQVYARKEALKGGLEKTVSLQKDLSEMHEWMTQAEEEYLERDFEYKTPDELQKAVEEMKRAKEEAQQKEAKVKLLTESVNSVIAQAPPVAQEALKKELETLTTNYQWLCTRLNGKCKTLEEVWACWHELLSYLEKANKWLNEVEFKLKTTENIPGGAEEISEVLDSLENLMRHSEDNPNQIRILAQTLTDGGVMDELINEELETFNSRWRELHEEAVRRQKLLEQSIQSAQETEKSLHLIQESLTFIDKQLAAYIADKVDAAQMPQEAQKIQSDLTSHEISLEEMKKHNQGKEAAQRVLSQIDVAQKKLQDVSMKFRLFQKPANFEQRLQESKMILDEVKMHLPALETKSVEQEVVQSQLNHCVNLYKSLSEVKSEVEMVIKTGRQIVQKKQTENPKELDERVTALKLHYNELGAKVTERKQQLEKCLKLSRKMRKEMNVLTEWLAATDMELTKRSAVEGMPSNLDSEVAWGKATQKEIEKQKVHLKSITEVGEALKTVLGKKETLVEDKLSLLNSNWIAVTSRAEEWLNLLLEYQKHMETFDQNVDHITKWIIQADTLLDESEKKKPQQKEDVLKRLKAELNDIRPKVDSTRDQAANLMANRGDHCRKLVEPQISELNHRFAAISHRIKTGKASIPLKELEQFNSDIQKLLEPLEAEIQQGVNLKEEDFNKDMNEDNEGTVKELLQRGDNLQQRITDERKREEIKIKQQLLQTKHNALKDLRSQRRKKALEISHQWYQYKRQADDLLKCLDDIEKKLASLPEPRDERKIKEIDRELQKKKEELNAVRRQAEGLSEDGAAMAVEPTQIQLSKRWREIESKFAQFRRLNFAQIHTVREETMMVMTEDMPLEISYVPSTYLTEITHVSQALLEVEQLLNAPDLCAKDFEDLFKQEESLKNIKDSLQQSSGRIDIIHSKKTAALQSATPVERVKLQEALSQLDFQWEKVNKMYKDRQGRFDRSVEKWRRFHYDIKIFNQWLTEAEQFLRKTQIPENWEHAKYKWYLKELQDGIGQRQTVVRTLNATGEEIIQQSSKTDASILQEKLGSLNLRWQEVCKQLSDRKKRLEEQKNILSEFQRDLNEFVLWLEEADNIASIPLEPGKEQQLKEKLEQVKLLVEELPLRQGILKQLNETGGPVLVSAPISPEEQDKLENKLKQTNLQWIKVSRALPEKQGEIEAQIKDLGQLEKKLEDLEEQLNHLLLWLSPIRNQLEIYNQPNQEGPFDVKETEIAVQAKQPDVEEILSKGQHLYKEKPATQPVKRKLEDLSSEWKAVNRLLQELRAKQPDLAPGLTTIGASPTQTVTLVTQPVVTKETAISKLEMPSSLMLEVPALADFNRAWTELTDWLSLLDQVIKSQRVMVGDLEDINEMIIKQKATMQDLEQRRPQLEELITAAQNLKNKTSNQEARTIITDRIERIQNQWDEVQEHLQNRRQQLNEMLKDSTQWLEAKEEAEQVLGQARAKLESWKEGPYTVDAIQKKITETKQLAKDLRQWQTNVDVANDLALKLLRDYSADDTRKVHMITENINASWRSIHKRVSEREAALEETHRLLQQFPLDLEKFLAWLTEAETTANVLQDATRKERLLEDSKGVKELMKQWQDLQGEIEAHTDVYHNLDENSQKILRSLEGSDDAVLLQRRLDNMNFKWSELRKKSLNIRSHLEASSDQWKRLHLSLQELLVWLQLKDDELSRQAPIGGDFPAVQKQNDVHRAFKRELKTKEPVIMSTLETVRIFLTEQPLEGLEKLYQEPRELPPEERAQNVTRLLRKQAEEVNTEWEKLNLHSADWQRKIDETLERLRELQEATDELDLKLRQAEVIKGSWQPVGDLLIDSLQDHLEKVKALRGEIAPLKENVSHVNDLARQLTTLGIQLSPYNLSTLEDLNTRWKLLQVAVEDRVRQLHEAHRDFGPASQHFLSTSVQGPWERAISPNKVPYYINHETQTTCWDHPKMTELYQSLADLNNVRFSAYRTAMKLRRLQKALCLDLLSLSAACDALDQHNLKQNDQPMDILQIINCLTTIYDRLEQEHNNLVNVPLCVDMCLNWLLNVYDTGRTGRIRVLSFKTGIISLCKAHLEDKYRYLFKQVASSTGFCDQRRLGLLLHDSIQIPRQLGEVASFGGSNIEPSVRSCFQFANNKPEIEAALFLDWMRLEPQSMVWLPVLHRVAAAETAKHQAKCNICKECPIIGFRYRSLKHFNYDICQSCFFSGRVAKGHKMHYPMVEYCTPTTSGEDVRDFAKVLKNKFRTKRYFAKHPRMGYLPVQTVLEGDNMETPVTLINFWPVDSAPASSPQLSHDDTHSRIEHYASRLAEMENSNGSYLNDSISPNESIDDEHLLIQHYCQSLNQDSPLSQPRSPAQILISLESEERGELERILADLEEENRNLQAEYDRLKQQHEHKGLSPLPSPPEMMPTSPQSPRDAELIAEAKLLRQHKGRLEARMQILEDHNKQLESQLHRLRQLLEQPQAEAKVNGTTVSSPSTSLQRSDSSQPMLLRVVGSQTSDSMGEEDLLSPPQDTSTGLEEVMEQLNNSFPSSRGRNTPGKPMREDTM
# MTHFD1L, Q6UB35, UniProt Q6UB35, whole entry: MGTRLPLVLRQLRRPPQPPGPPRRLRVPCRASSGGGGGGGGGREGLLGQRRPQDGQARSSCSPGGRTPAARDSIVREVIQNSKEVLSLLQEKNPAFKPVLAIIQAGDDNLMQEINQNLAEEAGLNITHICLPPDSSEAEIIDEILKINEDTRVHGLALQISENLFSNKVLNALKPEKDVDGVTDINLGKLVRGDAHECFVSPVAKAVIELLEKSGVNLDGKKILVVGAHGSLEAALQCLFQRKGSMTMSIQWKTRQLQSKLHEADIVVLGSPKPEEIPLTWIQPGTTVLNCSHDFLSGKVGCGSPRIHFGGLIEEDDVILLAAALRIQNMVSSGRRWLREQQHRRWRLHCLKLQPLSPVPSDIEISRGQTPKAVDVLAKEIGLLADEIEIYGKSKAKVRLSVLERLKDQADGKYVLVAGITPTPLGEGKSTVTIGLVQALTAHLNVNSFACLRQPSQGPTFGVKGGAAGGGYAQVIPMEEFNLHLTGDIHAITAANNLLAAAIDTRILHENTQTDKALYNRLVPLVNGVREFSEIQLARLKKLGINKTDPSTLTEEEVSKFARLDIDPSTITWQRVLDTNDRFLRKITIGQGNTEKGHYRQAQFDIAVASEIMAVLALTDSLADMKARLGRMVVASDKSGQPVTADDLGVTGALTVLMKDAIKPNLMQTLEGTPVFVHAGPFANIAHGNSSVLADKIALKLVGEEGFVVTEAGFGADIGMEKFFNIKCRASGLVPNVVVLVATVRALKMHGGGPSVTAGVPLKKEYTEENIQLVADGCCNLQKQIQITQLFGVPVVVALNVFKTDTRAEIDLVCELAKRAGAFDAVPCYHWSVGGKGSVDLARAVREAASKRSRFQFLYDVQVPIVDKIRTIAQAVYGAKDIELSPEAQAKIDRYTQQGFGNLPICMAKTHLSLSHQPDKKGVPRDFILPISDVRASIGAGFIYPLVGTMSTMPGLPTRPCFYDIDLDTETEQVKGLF
# TPX2, Q9ULW0, UniProt Q9ULW0, whole entry: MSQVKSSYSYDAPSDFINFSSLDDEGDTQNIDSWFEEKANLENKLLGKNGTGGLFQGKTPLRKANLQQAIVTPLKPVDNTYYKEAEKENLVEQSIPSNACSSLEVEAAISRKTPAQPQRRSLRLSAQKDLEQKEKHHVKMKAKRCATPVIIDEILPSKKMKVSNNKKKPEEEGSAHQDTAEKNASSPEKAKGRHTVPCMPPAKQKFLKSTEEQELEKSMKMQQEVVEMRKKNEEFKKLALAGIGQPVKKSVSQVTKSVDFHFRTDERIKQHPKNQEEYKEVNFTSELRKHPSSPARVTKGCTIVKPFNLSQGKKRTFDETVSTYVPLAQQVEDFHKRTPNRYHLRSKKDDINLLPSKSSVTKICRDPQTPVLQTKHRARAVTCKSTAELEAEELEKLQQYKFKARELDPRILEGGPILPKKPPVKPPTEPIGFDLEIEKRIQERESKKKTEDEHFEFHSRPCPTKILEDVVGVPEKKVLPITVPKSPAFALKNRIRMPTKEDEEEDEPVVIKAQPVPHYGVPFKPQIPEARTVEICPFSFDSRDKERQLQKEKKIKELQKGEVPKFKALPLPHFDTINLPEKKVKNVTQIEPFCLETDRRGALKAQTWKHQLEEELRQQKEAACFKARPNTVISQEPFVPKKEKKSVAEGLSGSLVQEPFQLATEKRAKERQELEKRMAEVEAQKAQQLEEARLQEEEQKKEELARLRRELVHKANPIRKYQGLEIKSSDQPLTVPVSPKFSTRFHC
# CST2, P09228, UniProt P09228, whole entry: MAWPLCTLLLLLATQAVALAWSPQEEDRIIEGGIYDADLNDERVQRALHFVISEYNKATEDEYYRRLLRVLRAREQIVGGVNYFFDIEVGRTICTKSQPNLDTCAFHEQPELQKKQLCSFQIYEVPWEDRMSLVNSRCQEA
# EXOSC1, Q9Y3B2, UniProt Q9Y3B2, whole entry: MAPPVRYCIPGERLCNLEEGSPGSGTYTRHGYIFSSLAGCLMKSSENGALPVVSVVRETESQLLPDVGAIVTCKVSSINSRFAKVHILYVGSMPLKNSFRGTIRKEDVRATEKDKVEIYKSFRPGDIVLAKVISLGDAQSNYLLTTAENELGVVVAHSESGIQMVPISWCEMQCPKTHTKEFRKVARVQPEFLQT
# Some of the results follow. The list holds hits alone, and they repeat only in part.
# Columns and labels:
# Test in all cases: PRISMA enrichment of interactor (LFQ) in peptide spot vs all other peptide spots (log2 fold change); higher = stronger / more specific binding of the interactor to the peptide
# [1] = molecular target: ADAMTS19, Q8TE59
# Description: (§1)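 PRISMA: 221 full-length sORF-encoded peptides (3-15 aa), plus SOS1/GLUT1 control peptides, were spot-synthesized on cellulose membranes in triplicate. Membranes were incubated with HEK293T lysate, and bound proteins were identified by LC-MS/MS with LFQ. Enrichment is the log2 fold change versus all other peptide spots; only significant interactors are listed (cutoff c=6, x0=2.8).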
# [2] = molecular target: MRPL57, Q9BQC6
# Description: as §1
# [3] = molecular target: PINX1, Q96BK5
# Description: as §1
# [4] = molecular target: SAPCD2, Q86UD0
# Description: as §1
# [5] = molecular target: ADAR, P55265
# Description: as §1
# [6] = molecular target: ATXN2L, Q8WWM7
# Description: as §1
# [7] = molecular target: CCAR1, Q8IX12
# Description: as §1
# [8] = molecular target: CLPX, O76031
# Description: as §1
# [9] = molecular target: DCTN1, Q14203
# Description: as §1
# [10] = molecular target: DMD, P11532
# Description: as §1
# [11] = molecular target: DNAJB11, Q9UBS4
# Description: as §1
# [12] = molecular target: DUSP3, P51452
# Description: as §1
# [13] = molecular target: HCFC1, P51610
# Description: as §1
# [14] = molecular target: ISCU, Q9H1K1
# Description: as §1
# [15] = molecular target: KIF22, Q14807
# Description: as §1
# [16] = molecular target: LARP4, Q71RC2
# Description: as §1
# [17] = molecular target: MCU, Q8NE86
# Description: as §1
# [18] = molecular target: MTHFD1L, Q6UB35
# Description: as §1
# [19] = molecular target: NAMPT, P43490
# Description: as §1
# [20] = molecular target: NUP153, P49790
# Description: as §1
# [21] = molecular target: NXF1, Q9UBU9
# Description: as §1
# [22] = molecular target: PICALM, Q13492
# Description: as §1
# [23] = molecular target: POLDIP3, Q9BY77
# Description: as §1
# [24] = molecular target: PRRC2B, Q5JSZ5
# Description: as §1
# [25] = molecular target: PRRC2C, Q9Y520
# Description: as §1
# [26] = molecular target: PUM1, Q14671
# Description: as §1
# [27] = molecular target: QRICH1, Q2TAL8
# Description: as §1
# [28] = molecular target: RACGAP1, Q9H0H5
# Description: as §1
# [29] = molecular target: RBM14, Q96PK6
# Description: as §1
# [30] = molecular target: SCPEP1, Q9HB40
# Description: as §1
# [31] = molecular target: SDF2L1, Q9HCN8
# Description: as §1
# [32] = molecular target: TBL1XR1, Q9BZK7
# Description: as §1
# [33] = molecular target: TMEM201, Q5SNT2
# Description: as §1
# [34] = molecular target: TPX2, Q9ULW0
# Description: as §1
# [35] = molecular target: UBAP2L, Q14157
# Description: as §1
# [36] = molecular target: UMPS, P11172
# Description: as §1
# [37] = molecular target: UTP14A, Q9BVJ6
# Description: as §1
# [38] = molecular target: XRN1, Q8IZH2
# Description: as §1
# [39] = molecular target: ZNF281, Q9Y2X9
# Description: as §1
# [40] = molecular target: ZNF638, Q14966
# Description: as §1
# [41] = molecular target: ADARB2, Q9NS39
# Description: as §1
# [42] = molecular target: AOC3, Q16853
# Description: as §1
# [43] = molecular target: CST2, P09228
# Description: as §1
# [44] = molecular target: EXOSC1, Q9Y3B2
# Description: as §1
# [45] = molecular target: FARSB, Q9NSD9
# Description: as §1
# [46] = molecular target: HHAT, Q5VTY9
# Description: as §1
# [47] = molecular target: HIBADH, P31937
# Description: as §1
# [48] = molecular target: RBM6, P78332
# Description: as §1
# [49] = molecular target: TUBB8, Q3ZCM7
# Description: as §1
# [50] = molecular target: ADGRA3, Q8IWK6
# Description: as §1
# [51] = molecular target: CC2D1A, Q6P1N0
# Description: as §1
# [52] = molecular target: CUL4A, Q13619
# Description: as §1
# [53] = molecular target: GTF3C3, Q9Y5Q9
# Description: as §1
# [54] = molecular target: MCM10, Q7L590
# Description: as §1
# [55] = molecular target: MICU2, Q8IYU8
# Description: as §1
# [56] = molecular target: MRPL45, Q9BRJ2
# Description: as §1
# [57] = molecular target: NELFE, P18615
# Description: as §1
# [58] = molecular target: NQO2, P16083
# Description: as §1
# [59] = molecular target: PAF1, Q8N7H5
# Description: as §1
# [60] = molecular target: PAIP1, Q9H074
# Description: as §1
# [61] = molecular target: RRS1, Q15050
# Description: as §1
# [62] = molecular target: SCO1, O75880
# Description: as §1
# [63] = molecular target: SEPTIN9, Q9UHD8
# Description: as §1
# [64] = molecular target: SULT1C2, O00338
# Description: as §1
# [65] = molecular target: WIZ, O95785
# Description: as §1
binder,measurement,setting,value
MEARDGC [TMEM39A],PRISMA enrichment of interactor (log2),[1],7.04
same,PRISMA enrichment of interactor (log2),[2],5.52
same,PRISMA enrichment of interactor (log2),[3],7.25
same,PRISMA enrichment of interactor (log2),[4],6.18
MLDLIRIYF [GATA4],PRISMA enrichment of interactor (log2),[5],4.94
same,PRISMA enrichment of interactor (log2),[6],5.45
same,PRISMA enrichment of interactor (log2),[7],7.4
same,PRISMA enrichment of interactor (log2),[8],5.58
same,PRISMA enrichment of interactor (log2),[9],6.12
same,PRISMA enrichment of interactor (log2),[10],7.71
same,PRISMA enrichment of interactor (log2),[11],6.32
same,PRISMA enrichment of interactor (log2),[12],5.37
same,PRISMA enrichment of interactor (log2),[13],6.14
same,PRISMA enrichment of interactor (log2),[14],5.41
same,PRISMA enrichment of interactor (log2),[15],4.19
same,PRISMA enrichment of interactor (log2),[16],4.53
same,PRISMA enrichment of interactor (log2),[17],7.17
same,PRISMA enrichment of interactor (log2),[18],4.82
same,PRISMA enrichment of interactor (log2),[19],5.12
same,PRISMA enrichment of interactor (log2),[20],7.49
same,PRISMA enrichment of interactor (log2),[21],5.69
same,PRISMA enrichment of interactor (log2),[22],5.75
same,PRISMA enrichment of interactor (log2),[3],6.42
same,PRISMA enrichment of interactor (log2),[23],5.5
same,PRISMA enrichment of interactor (log2),[24],4.46
same,PRISMA enrichment of interactor (log2),[25],4.74
same,PRISMA enrichment of interactor (log2),[26],5.38
same,PRISMA enrichment of interactor (log2),[27],5.1
same,PRISMA enrichment of interactor (log2),[28],4.11
same,PRISMA enrichment of interactor (log2),[29],5.98
same,PRISMA enrichment of interactor (log2),[30],6.12
same,PRISMA enrichment of interactor (log2),[31],5.12
same,PRISMA enrichment of interactor (log2),[32],4.76
same,PRISMA enrichment of interactor (log2),[33],5.11
same,PRISMA enrichment of interactor (log2),[34],5.66
same,PRISMA enrichment of interactor (log2),[35],5.24
same,PRISMA enrichment of interactor (log2),[36],5.92
same,PRISMA enrichment of interactor (log2),[37],5.07
same,PRISMA enrichment of interactor (log2),[38],4.74
same,PRISMA enrichment of interactor (log2),[39],3.97
same,PRISMA enrichment of interactor (log2),[40],6.27
MKMSVSLSGGRRLL [HIPK3],PRISMA enrichment of interactor (log2),[41],9.05
same,PRISMA enrichment of interactor (log2),[42],7.06
same,PRISMA enrichment of interactor (log2),[43],8.07
same,PRISMA enrichment of interactor (log2),[44],8.15
same,PRISMA enrichment of interactor (log2),[45],5.49
same,PRISMA enrichment of interactor (log2),[46],6.79
same,PRISMA enrichment of interactor (log2),[47],4.69
same,PRISMA enrichment of interactor (log2),[48],4.18
same,PRISMA enrichment of interactor (log2),[49],5.7
MSSTSRDIPSQERSA [CDH11],PRISMA enrichment of interactor (log2),[50],6.2
same,PRISMA enrichment of interactor (log2),[51],6.02
same,PRISMA enrichment of interactor (log2),[52],6.26
same,PRISMA enrichment of interactor (log2),[53],6.04
same,PRISMA enrichment of interactor (log2),[54],4.16
same,PRISMA enrichment of interactor (log2),[55],4.9
same,PRISMA enrichment of interactor (log2),[56],5.26
same,PRISMA enrichment of interactor (log2),[57],4.34
same,PRISMA enrichment of interactor (log2),[58],4.97
same,PRISMA enrichment of interactor (log2),[59],6.13
same,PRISMA enrichment of interactor (log2),[60],3.84
same,PRISMA enrichment of interactor (log2),[61],5.79
same,PRISMA enrichment of interactor (log2),[62],4.58
same,PRISMA enrichment of interactor (log2),[63],5.57
same,PRISMA enrichment of interactor (log2),[64],5.82
same,PRISMA enrichment of interactor (log2),[65],5.72

# Some of the entries above in another layout.
binder	measurement	setting	value
MLDLIRIYF [GATA4]	PRISMA enrichment of interactor (log2)	[3]	6.42
same	PRISMA enrichment of interactor (log2)	[23]	5.5
